In PubChem BioAssay AID248 (DTP/NCI, 2004):
The list does not hold the whole screen: it is rich in T/C values a quarter to a half above the control, in often repeated tests (any T/C) and in doses without a T/C. Further doses and runs are listed elsewhere. T/C is the treated group as % of the vehicle group. Some entries give survivors of the animals treated and no T/C: the source files T/C as zero there, which appears to mark a toxic dose or a test without result, not a measured value. Some survivor counts are full or nearly so, which does not show that the dose was tolerated: the source hardly ever lists a survival T/C far under the control, and the zero likely stands for such cases as well. Counts of survivors are from the toxicity check (mostly the fifth day) where no day follows; animals may have died later. Schedule codes are those of the source, read here as Q, the interval in days (D) or hours (H), X, the number of doses. Some molecules as drawn cover several salts, stereoisomers or complexes of the source; a dose is that of the sample tested. For survival time, the PubChem record calls one and a half times the control and up active, and a quarter to a half above the control has no call in these data; cut-offs in other NCI protocols can differ. Some T/C values carry the count of animals alive at the toxicity check (mostly the fifth day); where none is given, no animal had died by that day.

Tested on: L1210 leukemia ip in BDF1 mice, survival T/C
Assay: NCI In Vivo Anticancer Drug Screen. Data for tumor model L1210 Leukemia (intraperitoneal) in B6D2F1 (BDF1) mice
Details: T/C endpoint: mean survival time, higher T/C = longer survival
[1] = dose: 100.0 mg/kg/injection, schedule: Q04DX002 (ip), vehicle: Klucel (hydroxypropylcellulose) (HPC)
[2] = dose: 200.0 mg/kg/injection, schedule: Q04DX002 (ip), vehicle: Klucel (hydroxypropylcellulose) (HPC)
[3] = dose: 400.0 mg/kg/injection, schedule: Q04DX002 (ip), vehicle: Klucel (hydroxypropylcellulose) (HPC)
[4] = dose: 400.0 mg/kg/injection, schedule: Q04DX003 (ip), vehicle: Klucel (hydroxypropylcellulose) (HPC)
[5] = dose: 200.0 mg/kg/injection, schedule: Q04DX003 (ip), vehicle: saline
[6] = dose: 400.0 mg/kg/injection, schedule: Q04DX003 (ip), vehicle: saline
[7] = dose: 100.0 mg/kg/injection, schedule: Q01DX009 (ip), vehicle: saline
[8] = dose: 200.0 mg/kg/injection, schedule: Q04DX003 (ip), vehicle: gum acacia
[9] = dose: 200.0 mg/kg/injection, schedule: Q01DX009 (ip), vehicle: saline
[10] = dose: 100.0 mg/kg/injection, schedule: Q04DX003 (ip), vehicle: saline with Tween-80
[11] = dose: 200.0 mg/kg/injection, schedule: Q04DX003 (ip), vehicle: saline with Tween-80
[12] = dose: 400.0 mg/kg/injection, schedule: Q04DX003 (ip), vehicle: saline with Tween-80
[13] = dose: 25.0 mg/kg/injection, schedule: Q01DX001 (ip), vehicle: Klucel (hydroxypropylcellulose) (HPC)
[14] = dose: 50.0 mg/kg/injection, schedule: Q01DX001 (ip), vehicle: Klucel (hydroxypropylcellulose) (HPC)
[15] = dose: 100.0 mg/kg/injection, schedule: Q01DX001 (ip), vehicle: Klucel (hydroxypropylcellulose) (HPC)
[16] = dose: 200.0 mg/kg/injection, schedule: Q01DX001 (ip), vehicle: Klucel (hydroxypropylcellulose) (HPC)
[17] = dose: 400.0 mg/kg/injection, schedule: Q01DX001 (ip), vehicle: Klucel (hydroxypropylcellulose) (HPC)

Compound: O=C1NC(=O)C2C3OC(C(Cl)C3Cl)C12 (centres undefined)
- survivor count [1]: 1 of 3
- survivor count (dose: 150.0 mg/kg/injection, schedule: Q01DX009 (ip), vehicle: carboxymethylcellulose (CMC)): 1 of 6
- survivor count [2]: 0 of 3
- survivor count (dose: 300.0 mg/kg/injection, schedule: Q01DX009 (ip), vehicle: carboxymethylcellulose (CMC)): 0 of 6
- survivor count [3]: 0 of 3

Compound: O=C(Nc1cc(Cl)c(Oc2ccc(Cl)cc2)cc1S(=O)(=O)O)Nc1cccc(Cl)c1Cl
- survivor count (dose: 200.0 mg/kg/injection, schedule: Q01DX009 (ip), vehicle: Klucel (hydroxypropylcellulose) (HPC)): 2 of 6

Compound: CCCCCCCCCCCCCCCCCSc1cccc(C)c1
- survivor count [4]: 6 of 6

Compound: O=[N+]([O-])c1ccc2c(c1)N(CCCN1CCN(CCO)CC1)c1ccccc1S2
- T/C (dose: 50.0 mg/kg/injection, schedule: Q04DX003 (ip), vehicle: saline): 138 % of control [3 of 4 alive]
- survivor count (dose: 100.0 mg/kg/injection, schedule: Q04DX003 (ip), vehicle: saline): 0 of 4
- survivor count [5]: 1 of 4

Compound: Nc1nc(Br)cs1
- survivor count [6]: 0 of 6

Compound: O=C(Nc1ccccc1)Nc1ccccn1
- survivor count (dose: 50.0 mg/kg/injection, schedule: Q04DX003 (ip), vehicle: saline with Tween-80): 6 of 6

Compound: CCC([N+](=O)[O-])S(=O)(=O)c1ccc(C)cc1 (centres undefined)
- survivor count [7]: 6 of 6

Compound: COC(=O)[CH]([Hg][O]C(C)=O)C(OC)c1ccccc1 (centres undefined)
- survivor count (dose: 12.0 mg/kg/injection, schedule: Q04DX002 (ip), vehicle: carboxymethylcellulose (CMC)): 3 of 3
- survivor count (dose: 12.5 mg/kg/injection, schedule: Q04DX002 (ip), vehicle: carboxymethylcellulose (CMC)): 1 of 3
- survivor count (dose: 25.0 mg/kg/injection, schedule: Q04DX002 (ip), vehicle: carboxymethylcellulose (CMC)): 2 of 3
- survivor count (dose: 50.0 mg/kg/injection, schedule: Q04DX002 (ip), vehicle: carboxymethylcellulose (CMC)): 0 of 3
- survivor count [1]: 0 of 3
- survivor count [2]: 0 of 3
- survivor count [3]: 0 of 3

Compound: O=[N+]([O-])c1cc(S(=O)(=O)C(F)F)ccc1Cl
- survivor count (dose: 200.0 mg/kg/injection, schedule: Q01DX009 (ip), vehicle: gum acacia): 2 of 6
- survivor count [8]: 4 of 6
- survivor count (dose: 400.0 mg/kg/injection, schedule: Q04DX003 (ip), vehicle: gum acacia): 0 of 6

Compound: CN(Cc1cnc2nc(N)nc(N)c2n1)c1ccc(C(=O)NC(CCC(=O)O)C(=O)O)cc1Cl (centres undefined)
- T/C (dose: 3.0 mg/kg/injection, schedule: Q01DX015 (ip), vehicle: saline): 147 % of control
- T/C (dose: 5.0 mg/kg/injection, schedule: Q01DX015 (ip), vehicle: saline): 133 % of control

Compound: CCCCNC(C)(C)CCl
- survivor count [7]: 3 of 6
- survivor count (dose: 100.0 mg/kg/injection, schedule: Q01DX009 (ip), vehicle: water): 0 of 6
- survivor count (dose: 200.0 mg/kg/injection, schedule: Q01DX001 (ip), vehicle: saline): 0 of 6
- survivor count (dose: 200.0 mg/kg/injection, schedule: Q01DX009 (ip), vehicle: water): 0 of 6
- survivor count (dose: 200.0 mg/kg/injection, schedule: Q04DX003 (ip), vehicle: water): 0 of 6
- survivor count (dose: 400.0 mg/kg/injection, schedule: Q01DX001 (ip), vehicle: saline): 0 of 6
- survivor count (dose: 400.0 mg/kg/injection, schedule: Q04DX003 (ip), vehicle: water): 0 of 6

Compound: OC12c3ccccc3C(O)(c3ccccc31)C1c3ccccc3C2c2ccccc21
- survivor count [2]: 3 of 3

Compound: COc1ccc(OC=O)cc1OC
- survivor count (dose: 400.0 mg/kg/injection, schedule: Q04DX003 (ip), vehicle: acetone): 3 of 6

Compound: CC(C)NCCC(=O)c1ccc(OCc2ccccc2)cc1
- survivor count [9]: 0 of 6
- survivor count (dose: 400.0 mg/kg/injection, schedule: Q01DX009 (ip), vehicle: saline): 0 of 6

Compound: CCCCN(C)N=Nc1ccc(CCCC(=O)OCC)cc1
- T/C (dose: 50.0 mg/kg/injection, schedule: Q01DX009 (ip), vehicle: saline): 126 % of control
- T/C (dose: 75.0 mg/kg/injection, schedule: Q01DX009 (ip), vehicle: saline): 132 % of control
- T/C (dose: 187.5 mg/kg/injection, schedule: Q01DX009 (ip), vehicle: saline): 128 % of control
- survivor count [9]: 5 of 6
- T/C [5]: 138 % of control
- survivor count [6]: 3 of 6

Compound: Cc1c(N)cccc1N
- survivor count (dose: 50.0 mg/kg/injection, schedule: Q01DX009 (ip), vehicle: saline with Tween-80): 1 of 6
- survivor count [10]: 1 of 6
- survivor count [11]: 0 of 6
- survivor count [12]: 0 of 6

Compound: Cc1ccccc1Nc1c2ccccc2nc2ccccc12
- survivor count [10]: 5 of 6
- survivor count [11]: 1 of 6
- survivor count [12]: 0 of 6

Compound: CC(=O)NC(CCSCc1c2ccccc2c(C)c2c1ccc1ccccc12)C(=O)O (centres undefined)
- survivor count (dose: 100.0 mg/kg/injection, schedule: Q01DX009 (ip), vehicle: saline with Tween-80): 6 of 6

Compound: O=C(Nc1ccc(Nc2ccccc2)cc1)Nc1cccc(C(F)(F)F)c1
- survivor count (dose: 100.0 mg/kg/injection, schedule: Q04DX002 (ip), vehicle: gum acacia): 3 of 3
- survivor count [8]: 3 of 3

Compound: COC(=O)C1=C(C)NC(=O)NC1c1ccc(N(CCCl)CCCl)c(OC)c1 (centres undefined)
- T/C [13]: 129 % of control
- survivor count (dose: 25.0 mg/kg/injection, schedule: Q01DX009 (ip), vehicle: Klucel (hydroxypropylcellulose) (HPC)): 1 of 6
- T/C [14]: 140 % of control
- survivor count (dose: 50.0 mg/kg/injection, schedule: Q01DX009 (ip), vehicle: Klucel (hydroxypropylcellulose) (HPC)): 1 of 6
- T/C [15]: 129 % of control [4 of 6 alive]
- survivor count (dose: 100.0 mg/kg/injection, schedule: Q01DX009 (ip), vehicle: Klucel (hydroxypropylcellulose) (HPC)): 1 of 6
- survivor count [16]: 2 of 6
- survivor count [17]: 0 of 6

Compound: CCOC(=O)/C(C#N)=C/P(=O)(OCC)OCC
- survivor count (dose: 100.0 mg/kg/injection, schedule: Q04DX003 (ip), vehicle: Klucel (hydroxypropylcellulose) (HPC)): 6 of 6
- survivor count (dose: 200.0 mg/kg/injection, schedule: Q04DX003 (ip), vehicle: Klucel (hydroxypropylcellulose) (HPC)): 6 of 6
- survivor count [4]: 6 of 6

Compound: Cc1ccc(S(=O)(=O)NCCN(C2CCCCC2)S(=O)(=O)c2ccc(C)cc2)cc1
- survivor count (dose: 60.0 mg/kg/injection, schedule: Q01DX001 (ip), vehicle: carboxymethylcellulose (CMC)): 0 of 6
- survivor count (dose: 75.0 mg/kg/injection, schedule: Q01DX001 (ip), vehicle: carboxymethylcellulose (CMC)): 1 of 6
- survivor count (dose: 150.0 mg/kg/injection, schedule: Q01DX001 (ip), vehicle: carboxymethylcellulose (CMC)): 1 of 6
- survivor count (dose: 300.0 mg/kg/injection, schedule: Q01DX001 (ip), vehicle: carboxymethylcellulose (CMC)): 0 of 6

Compound: CC(O)C[As](=O)(O)c1cccc(Cl)c1 (centres undefined)
- survivor count [13]: 0 of 6
- survivor count [14]: 0 of 6
- survivor count [15]: 0 of 6
- survivor count [16]: 0 of 6
- survivor count [17]: 0 of 6

Compound: CCCCCCCC(=N)OCC
- survivor count (dose: 200.0 mg/kg/injection, schedule: Q01DX009 (ip), vehicle: saline with Tween-80): 2 of 6
- survivor count (dose: 400.0 mg/kg/injection, schedule: Q01DX001 (ip), vehicle: saline with Tween-80): 0 of 6
